Source: US6331520A, “Pharmaceutical compositions of peptides having low solubility in physiological medium” (Applied Research Systems ARS Holding NV, priority 1997, dated 2001)
At least one peptide structure holds a part that was inferred or is arguable (an end, a ring closure or a residue).

Columns and labels:
Format in all cases: physicochemical
[1] = hGRF stability in 60% propylene glycol + 20% nicotinamide + water pH 7.5 (RP-HPLC); conditions: hGRF 10 mg/ml, 20% H2O pH 7.5, +25° C.
[2] = hGRF precipitation point on increasing pH in aqueous nicotinamide solutions
[3] = hGRF stability in propylene glycol + nicotinamide solutions (RP-HPLC)
[4] = 5 mg/ml in H2O at pH 3 + 5% nicotinamide
[5] = 5 mg/ml in H2O at pH 3 + 20% nicotinamide
[6] = 20 mg/ml in H2O at pH 3 + 5% nicotinamide
[7] = 20 mg/ml in H2O at pH 3 + 20% nicotinamide
[8] = bulk 1299201 (unstored reference)
[9] = hGRF 5 mg/ml in propylene glycol, +4° C., 1 WEEK, 0% nicotinamide
[10] = hGRF 5 mg/ml in propylene glycol, +4° C., 1 WEEK, 20% nicotinamide
[11] = hGRF 5 mg/ml in propylene glycol, +4° C., 4 WEEKS, 0% nicotinamide
[12] = hGRF 5 mg/ml in propylene glycol, +4° C., 4 WEEKS, 20% nicotinamide
[13] = hGRF 5 mg/ml in propylene glycol, +4° C., 8 WEEKS, 0% nicotinamide
[14] = hGRF 5 mg/ml in propylene glycol, +4° C., 8 WEEKS, 20% nicotinamide
[15] = hGRF 5 mg/ml in propylene glycol, +40° C. (title), 1 WEEK, 0% nicotinamide
[16] = hGRF 5 mg/ml in propylene glycol, +40° C. (title), 1 WEEK, 20% nicotinamide
[17] = hGRF 5 mg/ml in propylene glycol, +40° C. (title), 4 WEEKS, 0% nicotinamide
[18] = hGRF 5 mg/ml in propylene glycol, +40° C. (title), 4 WEEKS, 20% nicotinamide

## CC[C@H](C)[C@H](NC(=O)[C@H](C)NC(=O)[C@H](CC(=O)O)NC(=O)[C@H](C)NC(=O)[C@@H](N)Cc1ccc(O)cc1)C(=O)N[C@@H](Cc1ccccc1)C(=O)N[C@H](C(=O)N[C@@H](CC(N)=O)C(=O)N[C@@H](CO)C(=O)N[C@@H](Cc1ccc(O)cc1)C(=O)N[C@@H](CCCNC(=N)N)C(=O)N[C@@H](CCCCN)C(=O)N[C@H](C(=O)N[C@@H](CC(C)C)C(=O)NCC(=O)N[C@@H](CCC(N)=O)C(=O)N[C@@H](CC(C)C)C(=O)N[C@@H](CO)C(=O)N[C@@H](C)C(=O)N[C@@H](CCCNC(=N)N)C(=O)N[C@@H](CCCCN)C(=O)N[C@@H](CC(C)C)C(=O)N[C@@H](CC(C)C)C(=O)N[C@@H](CCC(N)=O)C(=O)N[C@@H](CC(=O)O)C(=O)N[C@H](C(=O)N[C@@H](CCSC)C(=O)N[C@@H](CO)C(=O)N[C@@H](CCCNC(=N)N)C(N)=O)[C@@H](C)CC)C(C)C)[C@@H](C)O [hGRF, hGRF(1-29)-NH2]
[1]; 4 WEEKS
  Oxidation peaks (%) (two peaks, RT ratio 0.65-0.67): 0.08-0.09%
  peak area 4-29 ?: 0.03%
  peak area GRF1-29: 96.28%
  peak area Succ-D3 + Asp8: 1.34%
  peak area Succ-N8: 0.15%
  peak area β-Asp3: 0.85%
  peak area β-Asp8: 0.27%
[1]; 8 WEEKS
  Oxidation peaks (%) (two peaks, RT ratio 0.65-0.67): 0.12-0.15%
  peak area 4-29 ?: 0.03%
  peak area GRF1-29: 93.69%
  peak area Succ-D3 + Asp8: 1.57%
  peak area Succ-N8: 0.08%
  peak area β-Asp3: 2.34%
  peak area β-Asp8: 0.47%
[1]; 12 WEEKS
  Oxidation peaks (%) (two peaks, RT ratio 0.65-0.67): 0.12-0.14%
  peak area 4-29 ?: 0.10%
  peak area GRF1-29: 90.94%
  peak area Succ-D3 + Asp8: 1.73%
  peak area Succ-N8: 0.10%
  peak area β-Asp3: 3.54%
  peak area β-Asp8: 0.60%
[1]; T = 0
  Oxidation peaks (%) (two peaks, RT ratio 0.65-0.67): 0.07-0.07%
  peak area GRF1-29: 98.17%
  peak area Succ-D3 + Asp8: 0.60%
  peak area Succ-N8: 0.38%
  peak area β-Asp8: 0.04%
[2]; 5 mg/ml in H2O at pH 3
  Initial pH: 4.93
  Precipitation point (pH): 10.09 pH
[2]; [4]
  Initial pH: 5.65
  Precipitation point (pH): 12.28 pH
[2]; [5]
  Initial pH: 6.76
  Precipitation point (pH): 12.01 pH
[2]; 20 mg/ml in H2O at pH 3
  Initial pH: 4.94
  Precipitation point (pH): 7.20 pH
[2]; [6]
  Initial pH: 5.30
  Precipitation point (pH): 10.10 pH
[2]; [7]
  Initial pH: 5.52
  Precipitation point (pH): 12.38 pH
[3]; [8]
  peak area 1-29OH: 0.3%
  peak area Asp^8: 0.4%
  peak area GRF1-29: 97.7%
  peak area Met-Ox: 0.04%
  peak area Succ-D3: 0.4%
  peak area Succ-N8: 0.6%
  peak area rtr 1.07: 0%
  peak area β-Asp^8: 0%
[3]; [9]
  peak area 1-29OH: 0.4%
  peak area Asp^8: 1.0%
  peak area GRF1-29: 95.4%
  peak area Met-Ox: 0.2%
  peak area Succ-D3: 0.5%
  peak area Succ-N8: 0.2%
  peak area rtr 1.08: 0.2%
  peak area rtr 1.11: 0.2%
  peak area rtr 1.13: 0.4%
  peak area rtr 1.20: 0.9%
  peak area rtr 1.23: 0.4%
  peak area rtr 1.39: 0.1%
  peak area β-Asp^8: 0%
[3]; [10]
  peak area 1-29OH: 0.4%
  peak area Asp^8: 0.7%
  peak area GRF1-29: 97.5%
  peak area Met-Ox: 0.3%
  peak area Succ-D3: 0.4%
  peak area Succ-N8: 0.4%
  peak area rtr 1.18: 0.3%
  peak area rtr 1.20: 0.2%
  peak area rtr 1.39: 0.2%
  peak area β-Asp^8: 0%
[3]; [11]
  peak area 1-29OH: 0.3%
  peak area Asp8: 0.9%
  peak area GRF1-29: 95.0%
  peak area Met-Ox: 0.1%
  peak area Succ-D3: 0.4%
  peak area Succ-N8: 0.2%
  peak area rtr 1.07: 0.4%
  peak area rtr 1.08: 0.2%
  peak area rtr 1.11: 0.6%
  peak area rtr 1.17: 1.6%
  peak area rtr 1.20: 0.3%
  peak area rtr 1.36: 0.1%
  peak area β-Asp8: 0%
[3]; [12]
  peak area 1-29OH: 0.3%
  peak area Asp8: 1.0%
  peak area GRF1-29: 97.1%
  peak area Met-Ox: 0.4%
  peak area Succ-D3: 0.4%
  peak area Succ-N8: 0.3%
  peak area rtr 1.07: 0.1%
  peak area rtr 1.08: 0.1%
  peak area rtr 1.11: 0.1%
  peak area rtr 1.17: 0.1%
  peak area rtr 1.36: 0.1%
  peak area β-Asp8: 0%
[3]; [13]
  peak area 1-29OH: 0.3%
  peak area GRF1-29: 92.2%
  peak area Met-Ox: 0.3%
  peak area Succ-D3 + Asp^8 (not resolved): 1.2%
  peak area Succ-N8: 0.2%
  peak area rtr 1.07: 0.7%
  peak area rtr 1.08: 0.5%
  peak area rtr 1.10: 0.9%
  peak area rtr 1.17: 2.6%
  peak area rtr 1.20: 0.5%
  peak area rtr 1.36: 0.1%
  peak area β-Asp^8: 0%
[3]; [14]
  peak area 1-29OH: 0.3%
  peak area GRF1-29: 95.7%
  peak area Met-Ox: 0.5%
  peak area Succ-D3 + Asp^8 (not resolved): 1.8%
  peak area Succ-N8: 0.3%
  peak area rtr 1.07: 0.1%
  peak area rtr 1.08: 0.1%
  peak area rtr 1.10: 0.1%
  peak area rtr 1.17: 0.2%
  peak area rtr 1.20: 0.1%
  peak area rtr 1.36: 0.1%
  peak area β-Asp^8: 0%
[3]; [15]
  peak area 1-29OH: 0.1%
  peak area Asp^8: 1.2%
  peak area GRF1-29: 82.9%
  peak area Met-Ox: 0.3%
  peak area Succ-D3: 1.1%
  peak area Succ-N8: 0%
  peak area rtr 1.08: 0.5%
  peak area rtr 1.11: 3.2%
  peak area rtr 1.13: 1.4%
  peak area rtr 1.17: 0.3%
  peak area rtr 1.18: 3.9%
  peak area rtr 1.20: 2.6%
  peak area rtr 1.23: 1.37%
  peak area rtr 1.39: 0.3%
  peak area β-Asp^8: 0%
[3]; [16]
  peak area 1-29OH: 0.2%
  peak area Asp^8: 1.6%
  peak area GRF1-29: 88.0%
  peak area Met-Ox: 1.6%
  peak area Succ-D3: 1.3%
  peak area Succ-N8: 0.3%
  peak area rtr 1.08: 0.3%
  peak area rtr 1.11: 1.4%
  peak area rtr 1.13: 0.4%
  peak area rtr 1.17: 0%
  peak area rtr 1.18: 1.8%
  peak area rtr 1.20: 1.0%
  peak area rtr 1.23: 1.2%
  peak area rtr 1.39: 0%
  peak area β-Asp^8: 0%
[3]; [17]
  peak area 1-29OH: 0%
  peak area Asp^8: 1.5%
  peak area GRF1-29: 44.6%
  peak area Met-Ox: 0.5%
  peak area Succ-D3: 1.7%
  peak area Succ-N8: 0%
  peak area rtr 1.07: 15.1%
  peak area rtr 1.08: 15.3%
  peak area rtr 1.11: 8.4%
  peak area rtr 1.13: 1.4%
  peak area rtr 1.17: 3.4%
  peak area rtr 1.18: 1.4%
  peak area rtr 1.20: 2.1%
  peak area rtr 1.23: 1.2%
  peak area β-Asp^8: 0%
[3]; hGRF 5 mg/ml in propylene glycol, +40° C. (title), 4 WEEKS, 0% nicotinamide, n = 8 additional peaks
  peak area others: 3.4%
[3]; [18]
  peak area 1-29OH: 0.4%
  peak area Asp^8: 4.2%
  peak area GRF1-29: 43.1%
  peak area Met-Ox: 10.9%
  peak area Succ-D3: 1.3%
  peak area Succ-N8: 0%
  peak area rtr 1.07: 10.3%
  peak area rtr 1.08: 8.9%
  peak area rtr 1.11: 4.3%
  peak area rtr 1.17: 2.5%
  peak area rtr 1.18: 2.0%
  peak area rtr 1.20: 2.0%
  peak area rtr 1.23: 0.9%
  peak area β-Asp^8: 0.9%
[3]; hGRF 5 mg/ml in propylene glycol, +40° C. (title), 4 WEEKS, 20% nicotinamide, n = 7 additional peaks
  peak area others: 8.4%
